Reference: US11427612 (dated 2022)

Experiment: general procedure: Fmoc solid-phase peptide synthesis; MeDbz-Gly-Rink (MeDbz linker on Rink or Wang resin)
Settings: whole synthesis

Substance	isolated yield [%]	crude yield [%]
GLP-1(7-36)	4	–
GLP-1(7-36)-MeNbz-Gly-NH2	–	45
